PubChem BioAssay AID2685 (National Center for Advancing Translational Sciences (NCATS), 2010)
Some of the results follow. Further columns of the screen follow, without active or inactive calls. Most of these compounds were active or inconclusive in the main read-out, so they are no random draw. The note in brackets gives the kind of curve behind each potency; many fits are weak.

Assay: qHTS Assay for Lipid Storage Modulators in Drosophila S3 Cells;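 as to cell number change: cells counted by Cell Tracker Red CMTPX staining in the red channel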
Conditions: BODIPY lipid droplet fluorescence, 18-24 h; for cell number change: measured here: cell count max response, cells fed with added oleic acid
Procedure, shortened: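 Laser-scanning cytometry quantifies lipid droplet accumulation (500–530 nm total intensity; droplet/cell object ratio) in oleic acid-fed (400 uM added) Drosophila S3 cells treated with a concentration series. 20 uM Triacsin C defined 100% inhibition.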

[1] = measured here: lipid fluorescence (Fed channel) AC50, cells fed with added oleic acid
[2] = measured here: cell number channel AC50, cells fed with added oleic acid

SMILES | cell number change [%] | AC50 [1] | AC50 [2]
CN1/C(=C\C=C(C#N)C#N)C(C)(C)c2ccccc21 | -6.85 | 18.4 µM [falling, single point] | 
COc1ccc(CNC(=O)c2cccc(S(=O)(=O)N3CCCCC3)c2)cc1OC | -39.5 |  | 16.4 µM [falling, partial curve]
CCOC(=O)C/C(C)=N/NC(=O)c1cccs1 | 6.75 | 0.092 µM [falling, full curve, poor fit] | 
CCN1CCc2c(sc(NC(=O)Cc3ccccc3)c2C(=O)OC)C1 | -5.48 | 6.51 µM [rising, single point] | 
COc1cccc(C(=O)/C=C2\NCCc3cc(OC)c(OC)cc32)c1 | 4.5 |  | 
CC1CN(C(=O)COc2ncnc3ccccc23)CC(C)O1 (configuration not stated) | 155 | 29.1 µM [rising, single point] | 29.1 µM [rising, single point]
COc1cc(S(=O)(=O)NCc2ccncc2)c(OC)cc1Br |  | 18.4 µM [falling, partial curve] | 
O=C(CN1C(=O)NC2NC(=O)NC21)N/N=C/c1ccccc1F (configuration not stated) | -49.8 | 29.1 µM [falling, single point] | 20.6 µM [falling, partial curve]
CCCn1c2ccccc2c2nnc(SCC(=O)OCC)nc21 | -19.1 | 29.1 µM [rising, single point] | 
COc1cc(CN2CCN(C(=O)c3cccc4ccccc34)CC2)cc(OC)c1OC | 16.9 | 32.6 µM [rising, single point] | 
Nc1sc2c(c1C(=O)NC1CCS(=O)(=O)C1)CCCC2 (configuration not stated) | 12 |  | 
O=C1CCC(=O)N1c1ccc(S(=O)(=O)Nc2cccc([N+](=O)[O-])c2)cc1 | 2.76 | 29.1 µM [rising, single point] | 
C[C@@H](C(=O)Nc1ccc2ccccc2c1)[C@H]1C[C@]1(C)[C@H](NC(=O)c1cnccn1)c1ccccc1 | 5.19 | 2.91 µM [rising, full curve, poor fit] | 
Cc1cccc(OCC(=O)Nc2cc(Cl)ccc2-n2cncn2)c1C |  |  | 1.03 µM [rising, partial curve]
c1ccc(-c2nc(NCc3cccs3)c3ccccc3n2)cc1 | 23 | 29.1 µM [rising, single point] | 
Cc1ccc(S(=O)(=O)N2CCOCC2)cc1C(=O)N1CCOCC1 | 2.66 | 0.103 µM [rising, full curve, poor fit] | 
CC(NC(=O)c1ccc(C(=O)c2ccccc2)cc1)c1ccc(S(N)(=O)=O)cc1 (configuration not stated) | 4.91 | 0.366 µM [falling, partial curve, poor fit] | 
COc1ccc(C2C(C)C3(O)CC(C#N)(C(=O)N3)C2(C#N)C#N)cc1 (configuration not stated) | -41.1 |  | 29.1 µM [falling, single point]
N#Cc1nc(COc2ccc(Br)cc2)oc1N1CCCC1 | -20.7 | 0.651 µM [rising, single point] | 
O=C(CCNS(=O)(=O)c1ccc(Br)s1)NCc1ccccc1Cl | -16.6 | 0.82 µM [falling, full curve, poor fit] | 
CC(=O)c1ccc(N2CCN(Cc3nc(Cc4ccccc4)no3)CC2)cc1 | 8.23 | 0.00411 µM [rising, full curve, poor fit] | 

An excerpt from above in order of count of non-hydrogen atoms, ascending.
SMILES | cell number change [%] | AC50 [1] | AC50 [2]
CCOC(=O)C/C(C)=N/NC(=O)c1cccs1 | 6.75 | 0.092 µM [falling, full curve, poor fit] | 
CN1/C(=C\C=C(C#N)C#N)C(C)(C)c2ccccc21 | -6.85 | 18.4 µM [falling, single point] | 
Nc1sc2c(c1C(=O)NC1CCS(=O)(=O)C1)CCCC2 (configuration not stated) | 12 |  | 
N#Cc1nc(COc2ccc(Br)cc2)oc1N1CCCC1 | -20.7 | 0.651 µM [rising, single point] | 
COc1cc(S(=O)(=O)NCc2ccncc2)c(OC)cc1Br |  | 18.4 µM [falling, partial curve] | 
CCCn1c2ccccc2c2nnc(SCC(=O)OCC)nc21 | -19.1 | 29.1 µM [rising, single point] | 
Cc1ccc(S(=O)(=O)N2CCOCC2)cc1C(=O)N1CCOCC1 | 2.66 | 0.103 µM [rising, full curve, poor fit] | 
CCN1CCc2c(sc(NC(=O)Cc3ccccc3)c2C(=O)OC)C1 | -5.48 | 6.51 µM [rising, single point] | 
O=C1CCC(=O)N1c1ccc(S(=O)(=O)Nc2cccc([N+](=O)[O-])c2)cc1 | 2.76 | 29.1 µM [rising, single point] | 
CC(=O)c1ccc(N2CCN(Cc3nc(Cc4ccccc4)no3)CC2)cc1 | 8.23 | 0.00411 µM [rising, full curve, poor fit] | 
CC(NC(=O)c1ccc(C(=O)c2ccccc2)cc1)c1ccc(S(N)(=O)=O)cc1 (configuration not stated) | 4.91 | 0.366 µM [falling, partial curve, poor fit] | 
COc1cc(CN2CCN(C(=O)c3cccc4ccccc34)CC2)cc(OC)c1OC | 16.9 | 32.6 µM [rising, single point] | 
C[C@@H](C(=O)Nc1ccc2ccccc2c1)[C@H]1C[C@]1(C)[C@H](NC(=O)c1cnccn1)c1ccccc1 | 5.19 | 2.91 µM [rising, full curve, poor fit] | 

(list continues)

SMILES | cell number change [%] | AC50 [1] | AC50 [2]
NS(=O)(=O)c1ccc(-c2c(-c3ccccc3)sc3ccccc23)cc1 | -19.5 | 1.16 µM [rising, single point] | 
Cc1c(NS(=O)(=O)c2ccc(N3CCCCC3)c([N+](=O)[O-])c2)c(=O)n(-c2ccccc2)n1C | -27.1 | 0.00411 µM [falling, full curve, poor fit] | 0.116 µM [falling, full curve, poor fit]
CCOc1ccc(S(=O)(=O)N(C)CC(=O)N2CCN(CC)CC2)cc1 | -0.435 | 6.51 µM [rising, single point] | 
O=C(CSc1cccc2cccnc12)Nc1ccc(S(=O)(=O)N2CCOCC2)cc1 | -59 | 29.1 µM [falling, single point] | 29.1 µM [falling, single point]
COc1cccc(NC(=O)c2ccc(CN3CCOCC3)cc2)c1 | -2.31 |  | 
CCOc1ccc(OCCC(=O)N(CC)CC(=O)NCc2ccc(Cl)cc2)cc1 | 88.5 |  | 18.4 µM [rising, single point]
CSc1cccc(NS(=O)(=O)c2cccc3nsnc23)c1 | 5.41 | 29.1 µM [rising, single point] | 
CCOc1ccc(N2C(=O)CC(N3CCN(C(=O)c4ccco4)CC3)C2=O)cc1 (configuration not stated) | -11.5 | 29.1 µM [rising, single point] | 
N#Cc1ccc(CSc2nnc(-c3ccccn3)n2-c2ccccc2)cc1 | 34.6 |  | 1.84 µM [rising, partial curve]
CC(Oc1ccccc1F)C(=O)NNC(=O)CCNC(=O)c1ccco1 (configuration not stated) |  |  | 2.31 µM [rising, partial curve]
CCOC(=O)C(NC(C)=O)(N1CCc2ccccc2C1)C(F)(F)F (configuration not stated) | -9.04 | 6.51 µM [falling, partial curve, poor fit] | 
O=C(COC(=O)c1ccccn1)Nc1c(Cl)cccc1Cl |  | 29.1 µM [falling, single point] | 
CCCc1nnc(NC(=O)CCC(=O)NCc2ccccc2Cl)s1 | 10.3 |  | 
CCCNC(=O)COC(=O)c1ccc(OCC(=O)Nc2ccccc2OC)c(OC)c1 | 13.5 | 0.731 µM [rising, single point] | 
CCc1nnc(NC(=O)c2cnccn2)s1 | 19 |  | 
CC(=O)Nc1ccc(S(=O)(=O)Oc2ccc(/C=C3\SC(N)=NC3=O)cc2)cc1 | 3.21 | 4.61 µM [falling, single point] | 6.51 µM [falling, single point]
O=C1/C(=C\c2ccc(-c3ccccc3Cl)o2)SC(=S)N1CC1CCCO1 (configuration not stated) | 17.7 |  | 
COc1ccc(C(=O)O)cc1Nc1cc(C)nc2ncnn12 | 15.6 | 0.731 µM [falling, full curve, poor fit] | 
COc1cccc2cc(C(=O)NCc3ccco3)c(=Nc3ccc(C(=O)O)cc3)oc12 | 13.2 | 0.58 µM [rising, single point] | 
CC1(C)N([O-])C2=C(CCCC2)[N+]1=O |  | 29.1 µM [rising, single point] | 
O=C(COc1ccc(S(=O)(=O)N2CCCC2)cc1Cl)NCc1ccco1 | 12.7 | 29.1 µM [rising, single point] | 

SMILES | cell number change [%] | AC50 [1] | AC50 [2]
Oc1c(Br)cc(Br)cc1C=NCc1ccccc1 | 2.72 | 0.146 µM [rising, full curve, poor fit] | 0.116 µM [rising, full curve, poor fit]
COc1cc(CNc2ccc(N3CCCCC3)cc2)ccc1OCC(=O)NC(C)(C)C | -7.69 |  | 
Oc1ccc(/C=N/n2c(-c3ccco3)csc2=Nc2cccnc2)c(O)c1 | -1.77 | 0.366 µM [rising, full curve] | 
CCOc1ccc(CN2C(=O)c3ccccc3C2C(=O)NC(C)CC)cc1OC (configuration not stated) | 42.3 |  | 4.11 µM [rising, full curve]
CC12CC(O)C3c4ccc(O)cc4CCC3C1CC/C2=N\O (configuration not stated) | 9.22 | 29.1 µM [rising, single point] | 
O=C(Nc1ccc(N2CCOCC2)c(Cl)c1)c1ccccc1F |  |  | 0.0517 µM [rising, full curve, poor fit]
Cc1ccsc1C(=O)OCC(=O)c1cc(C)n(CC2CCCO2)c1C (configuration not stated) | 27.3 | 29.1 µM [rising, partial curve, poor fit] | 
c1ccc(CCNc2nc(-c3ccncc3)nc3ccccc23)cc1 | 1.99 |  | 
CC(C)N(O)C(=O)NC(C)(C)C | -47.6 | 16.4 µM [falling, partial curve] | 6.51 µM [falling, full curve]
Cc1cc(C(=O)Nc2ccc(N3CCCC3)c(Cl)c2)ccc1[N+](=O)[O-] | -1.75 |  | 4.61 µM [falling, single point]
O=C1c2ccccc2C(Nc2ccc3c(c2)OCCO3)N1Cc1ccco1 (configuration not stated) | -3.58 | 32.6 µM [rising, single point] | 
COc1ccc(-n2c(-c3ccc(Br)cc3)c[n+]3c2CCC3)cc1 | -11.2 | 0.206 µM [rising, partial curve, poor fit] | 
CCCCn1c(-c2ccccc2)nnc1-c1ccccc1 | -12 | 5.17 µM [rising, partial curve] | 
COc1cc(S(=O)(=O)NC2CCCC2)c(OC)cc1C | -23.7 | 7.31 µM [falling, partial curve] | 
O=C(COC(=O)c1cc(S(=O)(=O)N2CCCC2)ccc1O)Nc1ccc(SC(F)F)cc1 | -0.125 | 4.61 µM [rising, full curve] | 
CC(=O)NS(=O)(=O)c1ccc(NC(=O)CCC(=O)Oc2ccc(C)cc2)cc1 | 41.5 | 0.0731 µM [rising, full curve] | 4.11 µM [rising, full curve]
Cc1ccc(NC(=O)C2CC(=O)n3c(nc4ccccc43)N2)cc1Cl (configuration not stated) | -18.7 | 29.1 µM [falling, single point] | 
Cc1ccc(CN(C(=O)c2csnn2)C(C(=O)NC2CCCC2)c2ccc(C)o2)cc1 (configuration not stated) | -48.1 | 14.6 µM [falling, partial curve] | 20.6 µM [falling, single point]
O=C(Nc1c(C(=O)O)[nH]c2ccccc12)NC1CCCCC1 | -28.7 | 16.4 µM [falling, single point] | 
